Experimental data reported in patent US20250195492A1, “USE OF IPTACOPAN FOR THE TREATMENT OF LUPUS NEPHRITIS” (Novartis AG, priority 2022, published 2025).
The name of at least one read-out is uncertain.

Test: Healthy volunteer studies CLNP023X2101 and CLNP023X1102 (SAD and MAD)
Assay type: in vivo
Details: as reported from the healthy volunteer studies

For `CCO[C@H]1CCN(Cc2c(OC)cc(C)c3[nH]ccc23)[C@H](c2ccc(C(=O)O)cc2)C1` [iptacopan, 4-((2S,4S)-(4-ethoxy-1-((5-methoxy-7-methyl-1H-indol-4-yl)methyl)piperidin-2-yl))benzoic acid], which permeability is on record?
Its permeability is “good”.
